# In the supplement of paper PMC10849652:
# Chains of the proteins cited; added tags and fusions are not shown. Lines headed by an entry give the natural chain unless they say otherwise; changes in a name come on top.
# UniProt P26447: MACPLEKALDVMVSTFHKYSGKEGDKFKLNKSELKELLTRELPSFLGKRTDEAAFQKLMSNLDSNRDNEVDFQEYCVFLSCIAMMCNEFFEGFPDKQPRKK
# UniProt O95969: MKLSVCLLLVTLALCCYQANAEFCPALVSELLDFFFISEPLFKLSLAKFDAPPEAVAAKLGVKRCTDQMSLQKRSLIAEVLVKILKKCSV
# UniProt Q9H446: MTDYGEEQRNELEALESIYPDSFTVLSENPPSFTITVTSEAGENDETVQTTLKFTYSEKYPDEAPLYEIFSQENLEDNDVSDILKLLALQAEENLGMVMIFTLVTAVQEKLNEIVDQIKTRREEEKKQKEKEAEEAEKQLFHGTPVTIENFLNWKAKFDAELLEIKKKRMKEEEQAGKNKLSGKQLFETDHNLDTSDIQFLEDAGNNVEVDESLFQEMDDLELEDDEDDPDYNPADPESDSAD
# UniProt Q96BU1: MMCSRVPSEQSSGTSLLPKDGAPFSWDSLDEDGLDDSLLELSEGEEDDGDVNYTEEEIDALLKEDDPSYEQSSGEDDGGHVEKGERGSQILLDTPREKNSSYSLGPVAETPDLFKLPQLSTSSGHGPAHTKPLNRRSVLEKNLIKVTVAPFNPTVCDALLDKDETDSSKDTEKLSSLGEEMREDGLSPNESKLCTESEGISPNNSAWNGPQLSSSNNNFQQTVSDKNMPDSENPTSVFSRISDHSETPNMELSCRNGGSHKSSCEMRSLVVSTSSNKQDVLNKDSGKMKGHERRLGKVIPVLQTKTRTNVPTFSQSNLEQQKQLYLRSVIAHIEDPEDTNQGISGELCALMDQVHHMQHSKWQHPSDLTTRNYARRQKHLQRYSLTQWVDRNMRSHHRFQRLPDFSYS
# UniProt Q9BW04: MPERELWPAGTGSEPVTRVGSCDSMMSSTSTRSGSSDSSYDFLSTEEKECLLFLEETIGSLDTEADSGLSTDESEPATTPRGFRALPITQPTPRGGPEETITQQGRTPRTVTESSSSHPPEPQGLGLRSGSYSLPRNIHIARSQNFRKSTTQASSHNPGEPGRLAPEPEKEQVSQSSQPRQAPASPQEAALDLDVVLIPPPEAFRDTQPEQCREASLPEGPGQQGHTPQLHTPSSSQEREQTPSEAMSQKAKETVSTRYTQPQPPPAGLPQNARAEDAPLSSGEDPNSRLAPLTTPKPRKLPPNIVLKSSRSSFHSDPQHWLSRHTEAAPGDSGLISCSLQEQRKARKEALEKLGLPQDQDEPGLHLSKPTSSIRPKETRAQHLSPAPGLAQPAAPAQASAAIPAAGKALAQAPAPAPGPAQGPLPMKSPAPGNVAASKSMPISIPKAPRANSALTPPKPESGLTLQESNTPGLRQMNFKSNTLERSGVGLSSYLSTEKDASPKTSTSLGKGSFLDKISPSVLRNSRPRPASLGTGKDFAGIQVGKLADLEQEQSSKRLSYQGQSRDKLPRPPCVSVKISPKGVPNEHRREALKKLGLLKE
# UniProt Q0VDG4: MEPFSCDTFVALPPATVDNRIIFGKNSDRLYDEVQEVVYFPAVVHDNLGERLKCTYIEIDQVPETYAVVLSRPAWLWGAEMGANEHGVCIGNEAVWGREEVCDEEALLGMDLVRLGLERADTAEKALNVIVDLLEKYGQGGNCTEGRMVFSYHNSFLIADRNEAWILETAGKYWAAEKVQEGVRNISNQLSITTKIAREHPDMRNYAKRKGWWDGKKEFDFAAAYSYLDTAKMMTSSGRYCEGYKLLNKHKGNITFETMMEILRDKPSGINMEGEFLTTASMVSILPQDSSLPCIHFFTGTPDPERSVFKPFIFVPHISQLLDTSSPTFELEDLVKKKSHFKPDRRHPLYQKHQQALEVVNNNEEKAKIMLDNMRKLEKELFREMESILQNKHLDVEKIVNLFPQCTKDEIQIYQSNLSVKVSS
# UniProt Q6PCB5: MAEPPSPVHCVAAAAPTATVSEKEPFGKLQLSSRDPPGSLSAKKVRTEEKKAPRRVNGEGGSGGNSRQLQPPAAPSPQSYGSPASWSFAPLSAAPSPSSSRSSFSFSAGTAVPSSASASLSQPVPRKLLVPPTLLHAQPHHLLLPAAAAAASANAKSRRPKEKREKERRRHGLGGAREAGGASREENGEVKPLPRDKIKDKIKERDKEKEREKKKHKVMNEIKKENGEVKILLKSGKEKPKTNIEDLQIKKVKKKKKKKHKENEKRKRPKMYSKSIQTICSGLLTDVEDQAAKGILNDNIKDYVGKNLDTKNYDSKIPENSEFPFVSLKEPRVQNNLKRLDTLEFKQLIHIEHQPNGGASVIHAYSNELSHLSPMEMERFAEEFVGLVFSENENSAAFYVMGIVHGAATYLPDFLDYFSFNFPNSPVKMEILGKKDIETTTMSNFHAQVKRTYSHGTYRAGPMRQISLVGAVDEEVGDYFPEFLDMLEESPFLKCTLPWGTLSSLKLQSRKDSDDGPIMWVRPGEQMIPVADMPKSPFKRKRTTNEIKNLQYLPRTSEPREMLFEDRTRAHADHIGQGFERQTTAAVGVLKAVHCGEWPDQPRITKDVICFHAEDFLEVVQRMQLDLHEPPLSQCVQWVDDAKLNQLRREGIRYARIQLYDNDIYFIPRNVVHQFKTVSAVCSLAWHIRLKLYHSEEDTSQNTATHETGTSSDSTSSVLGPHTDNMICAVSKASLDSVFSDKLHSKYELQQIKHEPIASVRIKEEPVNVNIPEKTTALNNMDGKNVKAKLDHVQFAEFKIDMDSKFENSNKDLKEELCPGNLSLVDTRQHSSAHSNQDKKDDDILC
# UniProt Q14684: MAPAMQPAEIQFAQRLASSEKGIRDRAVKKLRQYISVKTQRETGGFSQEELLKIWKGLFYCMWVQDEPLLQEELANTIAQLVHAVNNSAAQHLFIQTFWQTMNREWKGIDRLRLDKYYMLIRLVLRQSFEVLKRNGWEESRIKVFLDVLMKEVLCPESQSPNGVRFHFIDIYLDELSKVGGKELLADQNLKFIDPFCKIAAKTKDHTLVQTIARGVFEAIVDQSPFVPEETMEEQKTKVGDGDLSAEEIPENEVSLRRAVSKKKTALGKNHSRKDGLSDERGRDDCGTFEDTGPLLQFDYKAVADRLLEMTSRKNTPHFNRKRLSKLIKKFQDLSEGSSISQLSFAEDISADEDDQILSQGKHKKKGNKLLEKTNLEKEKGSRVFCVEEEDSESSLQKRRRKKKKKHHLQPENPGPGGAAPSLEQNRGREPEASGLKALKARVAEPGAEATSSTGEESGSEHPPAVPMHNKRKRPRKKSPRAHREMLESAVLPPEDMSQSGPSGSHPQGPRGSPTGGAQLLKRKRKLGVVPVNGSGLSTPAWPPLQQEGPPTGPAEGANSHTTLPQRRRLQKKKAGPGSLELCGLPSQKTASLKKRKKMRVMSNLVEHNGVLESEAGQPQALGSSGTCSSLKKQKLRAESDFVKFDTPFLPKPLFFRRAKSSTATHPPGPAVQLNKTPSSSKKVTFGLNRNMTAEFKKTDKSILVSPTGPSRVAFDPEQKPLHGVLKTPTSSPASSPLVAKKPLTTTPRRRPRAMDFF
# UniProt Q6NW29: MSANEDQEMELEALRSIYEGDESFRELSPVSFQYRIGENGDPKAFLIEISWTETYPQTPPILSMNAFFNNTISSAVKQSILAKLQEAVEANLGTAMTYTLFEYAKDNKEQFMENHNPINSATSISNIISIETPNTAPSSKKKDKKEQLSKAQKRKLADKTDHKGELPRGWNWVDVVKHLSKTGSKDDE
# UniProt Q9Y265, whole entry, looked up: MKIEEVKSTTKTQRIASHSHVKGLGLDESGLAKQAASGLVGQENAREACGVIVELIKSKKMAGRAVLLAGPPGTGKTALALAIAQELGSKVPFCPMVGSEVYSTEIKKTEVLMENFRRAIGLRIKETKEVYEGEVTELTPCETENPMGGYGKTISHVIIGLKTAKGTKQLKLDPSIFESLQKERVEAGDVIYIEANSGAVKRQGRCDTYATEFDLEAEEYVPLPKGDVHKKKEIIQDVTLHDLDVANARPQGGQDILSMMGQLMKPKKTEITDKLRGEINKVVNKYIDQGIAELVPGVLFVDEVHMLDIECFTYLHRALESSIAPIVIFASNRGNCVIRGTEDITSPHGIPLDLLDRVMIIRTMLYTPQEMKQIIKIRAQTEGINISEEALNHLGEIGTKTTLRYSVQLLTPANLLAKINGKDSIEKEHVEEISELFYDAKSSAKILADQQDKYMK
# UniProt Q6P3W7: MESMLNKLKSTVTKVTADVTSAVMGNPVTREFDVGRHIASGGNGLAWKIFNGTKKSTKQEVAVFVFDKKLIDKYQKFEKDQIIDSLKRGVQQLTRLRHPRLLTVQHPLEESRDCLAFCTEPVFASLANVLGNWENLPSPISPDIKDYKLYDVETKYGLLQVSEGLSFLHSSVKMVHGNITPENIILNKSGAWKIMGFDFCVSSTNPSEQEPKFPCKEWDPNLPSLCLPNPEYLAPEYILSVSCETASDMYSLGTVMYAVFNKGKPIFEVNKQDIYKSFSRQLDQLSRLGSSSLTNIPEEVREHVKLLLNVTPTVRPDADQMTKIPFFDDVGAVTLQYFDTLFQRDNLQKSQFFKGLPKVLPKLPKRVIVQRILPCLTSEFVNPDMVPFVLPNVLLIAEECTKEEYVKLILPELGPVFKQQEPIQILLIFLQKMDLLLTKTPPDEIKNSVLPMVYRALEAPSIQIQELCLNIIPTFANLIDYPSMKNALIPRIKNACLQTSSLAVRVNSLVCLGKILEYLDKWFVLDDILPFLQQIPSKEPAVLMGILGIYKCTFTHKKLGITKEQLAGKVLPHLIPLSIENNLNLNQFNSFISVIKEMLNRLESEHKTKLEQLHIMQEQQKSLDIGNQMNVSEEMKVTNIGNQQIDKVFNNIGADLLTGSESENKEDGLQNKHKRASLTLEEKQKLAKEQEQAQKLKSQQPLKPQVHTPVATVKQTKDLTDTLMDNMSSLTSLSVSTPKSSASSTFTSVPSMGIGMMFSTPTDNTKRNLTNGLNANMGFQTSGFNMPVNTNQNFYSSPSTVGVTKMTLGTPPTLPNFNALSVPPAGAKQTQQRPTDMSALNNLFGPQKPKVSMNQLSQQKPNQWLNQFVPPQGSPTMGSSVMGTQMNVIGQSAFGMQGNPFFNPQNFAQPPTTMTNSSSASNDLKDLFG
# UniProt P82979: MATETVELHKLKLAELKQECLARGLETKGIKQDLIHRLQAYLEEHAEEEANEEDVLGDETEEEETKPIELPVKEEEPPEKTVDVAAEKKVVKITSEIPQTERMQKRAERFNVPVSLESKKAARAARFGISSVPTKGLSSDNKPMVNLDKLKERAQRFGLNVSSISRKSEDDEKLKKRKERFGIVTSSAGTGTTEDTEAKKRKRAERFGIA
# UniProt Q15404: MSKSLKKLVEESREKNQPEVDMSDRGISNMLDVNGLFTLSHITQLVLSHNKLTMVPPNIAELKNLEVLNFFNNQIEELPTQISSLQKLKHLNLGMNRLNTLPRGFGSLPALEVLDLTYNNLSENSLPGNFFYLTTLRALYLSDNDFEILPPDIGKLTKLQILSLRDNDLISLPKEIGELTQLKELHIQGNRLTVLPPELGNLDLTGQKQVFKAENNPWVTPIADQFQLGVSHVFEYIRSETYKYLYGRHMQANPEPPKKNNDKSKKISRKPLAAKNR
# UniProt Q9HCN8: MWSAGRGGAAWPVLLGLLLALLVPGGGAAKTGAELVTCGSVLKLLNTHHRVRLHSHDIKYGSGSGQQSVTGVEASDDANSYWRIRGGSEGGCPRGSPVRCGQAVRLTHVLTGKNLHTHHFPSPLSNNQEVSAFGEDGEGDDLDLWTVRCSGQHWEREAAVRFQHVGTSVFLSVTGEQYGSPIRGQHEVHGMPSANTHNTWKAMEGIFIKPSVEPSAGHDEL
# UniProt Q9Y224: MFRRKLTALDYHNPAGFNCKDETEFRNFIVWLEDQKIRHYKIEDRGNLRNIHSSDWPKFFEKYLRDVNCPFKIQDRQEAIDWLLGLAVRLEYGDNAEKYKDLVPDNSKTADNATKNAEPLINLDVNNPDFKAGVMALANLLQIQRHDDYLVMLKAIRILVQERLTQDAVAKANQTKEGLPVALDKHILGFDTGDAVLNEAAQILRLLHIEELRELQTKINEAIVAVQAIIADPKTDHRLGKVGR
# UniProt O75298: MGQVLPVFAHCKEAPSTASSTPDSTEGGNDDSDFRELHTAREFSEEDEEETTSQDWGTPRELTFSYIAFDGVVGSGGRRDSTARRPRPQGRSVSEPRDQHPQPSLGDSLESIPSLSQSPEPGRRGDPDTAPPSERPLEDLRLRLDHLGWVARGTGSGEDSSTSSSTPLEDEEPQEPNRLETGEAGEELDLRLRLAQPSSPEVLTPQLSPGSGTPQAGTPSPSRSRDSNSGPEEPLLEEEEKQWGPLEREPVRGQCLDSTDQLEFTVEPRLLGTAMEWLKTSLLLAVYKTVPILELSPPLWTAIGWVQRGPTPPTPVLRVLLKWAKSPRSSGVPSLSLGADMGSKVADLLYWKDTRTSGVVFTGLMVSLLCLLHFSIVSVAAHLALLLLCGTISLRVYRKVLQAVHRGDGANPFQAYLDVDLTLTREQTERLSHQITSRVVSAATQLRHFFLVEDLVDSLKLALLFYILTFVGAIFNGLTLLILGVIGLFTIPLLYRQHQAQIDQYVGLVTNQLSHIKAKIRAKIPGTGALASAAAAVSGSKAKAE
# Some of the results follow.
# Compound: c1cn2cc(-c3ccc4cn[nH]c4c3)nc(Nc3ccc(N4CCOCC4)cc3)c2n1 [entospletinib]
# Test: log2 fold change, soluble protein after heating vs DMSO (PISA); higher = thermal stabilisation; K562 cells, 10 uM, 30 min; active = over 0.2 and 3.5 SD of the protein, either way, in both replicates (recomputed)
# In short: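 Aliquots of K562 cells (2×10^6 cells/mL) treated with 10 μM compound for 30 min were heated for 3 min over 48°C-58°C. After pooling and extraction in PBS with 0.5% NP-40 at 4°C, soluble protein from a 21,000xg, 90 min spin was quantified by TMTpro 16plex LC-MS/MS with channel sums equalised. Thermal stability is expressed against control samples, from duplicates, as a log2 fold change.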
row,Target,log2 fold change
1,SCP2 (UniProt P22307),inactive: 0.011
2,SDHA (UniProt P31040),inactive: -0.039
3,S100A4 (UniProt P26447),inactive: -0.226
4,S100P (UniProt P25815),inactive: 0.021
5,SCGB1D2 (UniProt O95969),inactive: 0.072
6,RWDD1 (UniProt Q9H446),inactive: 0.053
7,S100PBP (UniProt Q96BU1),inactive: -0.006
8,RTF1 (UniProt Q92541),inactive: -0.003
9,SDHD (UniProt O14521),inactive: 0.111
10,SART1 (UniProt O43290),inactive: 0.053
11,SARG (UniProt Q9BW04),inactive: -0.024
12,RTN4 isoform 5 (UniProt Q9NQC3),inactive: 0.077
13,RUVBL2 (UniProt Q9Y230),inactive: 0.063
14,SCRN3 (UniProt Q0VDG4),inactive: 0.015
15,SEC23B (UniProt Q15437),inactive: -0.031
16,SEC11C (UniProt Q9BY50),inactive: -0.077

row,Target,log2 fold change
1,SCO1 (UniProt O75880),inactive: -0.022
2,RSBN1L (UniProt Q6PCB5),inactive: 0.067
3,SCARB2 (UniProt Q14108),inactive: -0.003
4,RRP1B (UniProt Q14684),inactive: 0.124
5,RWDD4 (UniProt Q6NW29),inactive: -0.072
6,RUVBL1 (UniProt Q9Y265),inactive: 0.061
7,SCYL2 (UniProt Q6P3W7),inactive: -0.024
8,SARNP (UniProt P82979),inactive: 0.016
9,RSU1 (UniProt Q15404),inactive: -0.019
10,SAMM50 (UniProt Q9Y512),inactive: -0.013
11,SCAMP3 (UniProt O14828),inactive: 0.003
12,SDF2L1 (UniProt Q9HCN8),inactive: 0.016
13,RTRAF (UniProt Q9Y224),inactive: 0.048
14,RTN2 (UniProt O75298),inactive: 0.083
15,S100A6 (UniProt P06703),inactive: -0.081
16,SACS (UniProt Q9NZJ4),inactive: -0.026

# An excerpt of these results, with tabs.
row	Target	log2 fold change
9	RSU1 (UniProt Q15404)	inactive: -0.019
10	SAMM50 (UniProt Q9Y512)	inactive: -0.013
11	SCAMP3 (UniProt O14828)	inactive: 0.003
12	SDF2L1 (UniProt Q9HCN8)	inactive: 0.016
13	RTRAF (UniProt Q9Y224)	inactive: 0.048
14	RTN2 (UniProt O75298)	inactive: 0.083
15	S100A6 (UniProt P06703)	inactive: -0.081
